Data from PubChem BioAssay AID2685 (National Center for Advancing Translational Sciences (NCATS), 2010).
The other results are listed elsewhere or left out. The main result of the screen is listed elsewhere. These columns were measured beside it and carry no call. Compounds called inactive in the main read-out are mostly missing here. The note in brackets gives the kind of curve behind each potency; many fits are weak.

Experiment: qHTS Assay for Lipid Storage Modulators in Drosophila S3 Cells;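 on cell number change: cells counted by Cell Tracker Red CMTPX staining in the red channel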
Conditions: BODIPY lipid droplet fluorescence, 18-24 h; for cell number change: measured here: cell count max response, cells fed with added oleic acid
Outline: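 Laser-scanning cytometry quantifies lipid droplet accumulation (500–530 nm total intensity; droplet/cell object ratio) in oleic acid-fed (400 uM added) Drosophila S3 cells treated with a concentration series. 20 uM Triacsin C defined 100% inhibition.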

[1] = measured here: cell number channel AC50, cells fed with added oleic acid
[2] = measured here: lipid fluorescence (Fed channel) AC50, cells fed with added oleic acid

Row | SMILES | cell number change [%] | AC50 [1] | AC50 [2]
1 | CCN(CC)S(=O)(=O)c1cc([N+](=O)[O-])ccc1NNC(=O)Nc1ccccc1OC | -38.7 | 0.291 µM [falling, full curve] | 6.51 µM [falling, single point]
2 | CCCN(CC(=O)Nc1ccccc1C)C(=O)CCCNC(=O)c1ccc(Cl)cc1 | -5.39 | 1.3 µM [rising, full curve, poor fit] | –
3 | CCC(CC)C(=O)Nc1cc(=O)n(C)c(=O)n1C | -2.46 | – | 2.31 µM [rising, full curve]
4 | CCCN1CCC(Oc2cccc(C(=O)NCCc3ccccc3)c2)CC1 | -12 | – | –
5 | O=C(CCC1CCCN(C(=O)c2ccc3cc[nH]c3c2)C1)N1CCN(c2ccccn2)CC1 (stereo not given) | -43.5 | 29.1 µM [falling, single point] | –
6 | CC(C)(C)NS(=O)(=O)c1ccc(NC(=O)C2CCCCC2)cc1 | -12.9 | – | 18.4 µM [falling, partial curve, poor fit]
7 | COc1ccc(Nc2nnc(-c3ccccc3)c3ccccc23)cc1C(=O)N1CCCCC1 | 7.42 | 0.206 µM [falling, full curve] | –
8 | CCN(c1ccccc1)S(=O)(=O)c1ccc(NC(=S)NC(=O)c2cccs2)cc1 | -20 | – | –
9 | CCc1ccc(-c2nc(CS(=O)CC(=O)NCc3cccnc3)c(C)o2)cc1 (stereo not given) | -10.3 | – | 4.61 µM [rising, partial curve]
10 | O=C(COC(=O)c1ccc2c(c1)S(=O)(=O)N=C1CCCCCN12)NCCc1ccc(F)cc1 | -31.9 | 2.31 µM [falling, full curve, poor fit] | –
11 | COc1cccc(C2NC(=O)NC(C)=C2C(=O)OCC2CCCCC2)c1 (stereo not given) | -0.493 | – | 32.6 µM [falling, single point]
12 | CC(=O)c1cnc(SCC(=O)O)nc1C | -14 | – | –
13 | CCc1ccc(NC(=O)CSc2nnc(-c3ccco3)o2)cc1 | 24 | – | 6.51 µM [falling, partial curve, poor fit]
14 | CC(C)CCOCC(=O)Oc1ccccc1C(=O)O | 31 | 9.2 µM [rising, partial curve, poor fit] | –
15 | Cc1ccc2[nH]c(C)cc(=S)c2c1 | -53.3 | – | 29.1 µM [falling, partial curve, poor fit]
16 | Cc1oc(/N=C/c2ccc(Cl)cc2)c(C#N)c1C | 7.26 | – | 1.64 µM [falling, full curve, poor fit]
17 | N#CCC(=O)Nc1ccc(C(=O)N2CCN(c3ccccn3)CC2)cc1 | 12.6 | – | –
18 | CC(NC(=O)COC(=O)CNS(=O)(=O)/C=C/c1ccccc1)c1ccccc1 (stereo not given) | -31 | 8.2 µM [falling, partial curve] | –
19 | Cc1cccc(C)c1NC(=O)CN(C)C(=O)CC1CC2CCC1C2 (stereo not given) | -21.2 | – | 1.46 µM [falling, partial curve, poor fit]
20 | C=CCNCC(=O)N1N=C(c2ccc3ccccc3c2)CC1c1ccc(OC)cc1 (stereo not given) | -3.54 | 1.46 µM [rising, partial curve] | –

An excerpt of these results, tab-delimited.
Row	SMILES	cell number change [%]	AC50 [1]	AC50 [2]
9	CCc1ccc(-c2nc(CS(=O)CC(=O)NCc3cccnc3)c(C)o2)cc1 (stereo not given)	-10.3	–	4.61 µM [rising, partial curve]
16	Cc1oc(/N=C/c2ccc(Cl)cc2)c(C#N)c1C	7.26	–	1.64 µM [falling, full curve, poor fit]
20	C=CCNCC(=O)N1N=C(c2ccc3ccccc3c2)CC1c1ccc(OC)cc1 (stereo not given)	-3.54	1.46 µM [rising, partial curve]	–

Further compounds:

Row | SMILES | cell number change [%] | AC50 [1] | AC50 [2]
21 | CCN(CC)S(=O)(=O)c1ccc(Cl)c(C(=O)Nc2nnc(C)s2)c1 | 2.3 | – | –
22 | Cn1c(SCC(=O)NCCc2ccccc2)ncc(C(=O)Nc2ccc(F)cc2)c1=O | 18.8 | – | 0.651 µM [rising, single point]
23 | Cn1c(CSc2nc3ccccc3s2)n[nH]c1=S | 81 | 9.2 µM [rising, partial curve] | –
24 | NC(=O)c1ccc(NC(=O)c2ccc(COc3ccccc3Br)cc2)cc1 | -9.13 | – | 0.0517 µM [falling, full curve, poor fit]
25 | O=C(c1ccccc1)N1CCN(C(=O)c2cc3nc(-c4ccccc4)cc(C(F)(F)F)n3n2)CC1 | -3.36 | – | –
26 | C=CCC1(C)C(=O)N(c2ccccc2)c2ccccc21 (stereo not given) | 4.35 | – | 6.51 µM [rising, single point]
27 | COc1ccc2oc(C(=O)OCc3c(C)noc3C)c(C)c2c1 | 78.5 | – | –
28 | O=C(Nc1nnc(C2CCCCC2)s1)C1CC(=O)N(c2ccccc2)C1 (stereo not given) | – | – | 29.1 µM [rising, single point]
29 | O=C(Nc1cc2c(ccc3ccccc32)oc1=O)C1CCCCC1 | -80 | 25.9 µM [falling, partial curve] | 18.4 µM [falling, partial curve]
30 | Cc1ccccc1/[N+]([O-])=C/c1cccs1 | -108 | 29.1 µM [falling, partial curve, poor fit] | 29.1 µM [falling, partial curve, poor fit]
31 | CN(CC(=O)Nc1ccccc1C(=O)NC1CC1)Cc1ccc(Cl)cc1 | 31.2 | 29.1 µM [rising, single point] | 16.4 µM [rising, partial curve, poor fit]
32 | CC(=O)c1ccc(NC(=O)CN2CCOCC2)cc1 | – | – | 29.1 µM [rising, single point]
33 | CSC(=O)NC(=O)NC(=O)c1ccc([N+](=O)[O-])cc1 | 1.19 | 6.51 µM [falling, single point] | 7.31 µM [falling, single point]
34 | Cc1ccc(S(=O)(=O)c2nc(N3CCOCC3)sc2Cl)cc1 | – | – | 0.82 µM [rising, single point]
35 | COc1ccc(N2CCN(C(=O)COC(=O)CCc3ccccc3)CC2)cc1 | 6.92 | 6.51 µM [falling, single point] | 6.51 µM [falling, single point]
36 | COc1ccc(S(=O)(=O)NCc2ccccn2)c(C)c1C | 1.4 | – | 4.11 µM [rising, single point]
37 | COc1ccc(C(=O)NC(=S)N2CCOCC2)cc1[N+](=O)[O-] | – | – | 2.06 µM [rising, partial curve]
38 | C=CCNC(=S)Nc1ccc(N(C)C)cc1 | 0.529 | 6.51 µM [falling, single point] | –
39 | CC(C)(C)c1ccc(C(=O)Nc2ccccc2Cl)cc1 | -8.66 | 0.731 µM [rising, single point] | 0.0651 µM [falling, full curve, poor fit]
40 | Cc1cc(C(=O)NCC(=O)OC(C)C(=O)N2CCOCC2)ccc1[N+](=O)[O-] (stereo not given) | -5.26 | – | 6.51 µM [falling, single point]

Row | SMILES | cell number change [%] | AC50 [1] | AC50 [2]
41 | COc1cc2c(cc1OC)-c1cc(OCc3cccnc3)nc(=O)n1CC2 | 175 | 20.6 µM [rising, single point] | 29.1 µM [rising, single point]
42 | CS(=O)(=O)Nc1ccc(C(=O)NC2CCCC2)cc1 | – | – | 3.66 µM [falling, partial curve]
43 | CCC(=O)NC(NC(=S)Nc1cccc2cccnc12)C(Cl)(Cl)Cl (stereo not given) | 28.9 | 3.26 µM [rising, single point] | 3.26 µM [rising, partial curve]
44 | CN(c1ccccc1)S(=O)(=O)c1cccc(C(=O)Nc2cccc(C(=O)NC3CC3)c2)c1 | – | 6.51 µM [falling, single point] | –
45 | O=CN1CCN(S(=O)(=O)c2ccc(S(=O)(=O)NC3CCCCC3)cc2)CC1 | -12.5 | – | 1.16 µM [falling, single point]
46 | CCOC(=O)c1cc2c(ccn2C)n1Cc1ccccc1Cl | -23.6 | – | 20.6 µM [falling, single point]
47 | CCN1C(=O)c2ccccc2Sc2ccc(C(=O)NC(C)C)cc21 | 4.37 | – | –
48 | Cc1ccc(C(=O)NC(=S)Nc2cccc3c(C)cc(C)nc23)cc1 | -24.8 | – | –
49 | COCCN(C(=O)COC(=O)c1oc2ccc(OC)cc2c1C)c1c(N)n(Cc2ccccc2)c(=O)[nH]c1=O | -25.5 | 2.31 µM [falling, full curve, poor fit] | 8.2 µM [falling, partial curve]
50 | COc1cccc(Cn2c(C3CC3)nc3ccc(NC(=O)c4ccco4)cc3c2=O)c1 | -9.64 | – | 1.03 µM [rising, partial curve]
51 | CCOC(=O)N/N=C/c1ccc(OCCSc2ccc(Cl)cc2)c(OCC)c1 | 24.1 | 3.26 µM [rising, partial curve] | 6.51 µM [rising, partial curve, poor fit]
52 | CCN(CC)S(=O)(=O)c1ccc(NC(=O)Nc2cccc(C(F)(F)F)c2)cc1 | -83.7 | 16.4 µM [falling, partial curve] | –
53 | CC1CCCN(C(=O)COC(=O)c2cc(-c3cccs3)nn2-c2ccccc2)C1 (stereo not given) | 12 | – | –
54 | C=CCn1c(SCC(=O)NCc2ccco2)nc2sc3c(c2c1=O)CCC3 | -31.8 | 0.0058 µM [falling, full curve, poor fit] | 29.1 µM [falling, single point]
55 | Cc1ccc(SCC(=O)Nc2ccc(N3CCOCC3)cc2)cc1C | 5.22 | – | 1.03 µM [rising, partial curve, poor fit]
56 | O=C(Nc1cc(C(F)(F)F)ccc1-n1cncn1)c1ccc([N+](=O)[O-])o1 | 28.9 | 0.058 µM [rising, full curve] | 0.0651 µM [rising, full curve, poor fit]
57 | CC(=O)Nc1ccc(S(=O)(=O)N2CCN(c3nc4ccccc4n3CC(C)C)CC2)cc1 | 15.2 | – | 0.0326 µM [rising, full curve, poor fit]
58 | CC(=O)c1cccc(OCC(=O)Nc2cccc(C(=O)Nc3c(C)n(C)n(-c4ccccc4)c3=O)c2)c1 | 2.19 | – | –
59 | O=C1N=c2ccc([N+](=O)[O-])cc2=C1c1sc(=O)[nH]c1O | -22 | – | –
60 | COc1ccc(NC(=O)c2c(-c3ccccc3)noc2C)c(OC)c1 | 53.2 | 29.1 µM [rising, single point] | –
